Results are given in words; binding and its absence hold for the method and conditions named. In cells and extracts the contact can be indirect. For some of these results: A result given as binding can be weak or reduced; the word gives no strength. Where a sequence is shown, tags or fusion partners need not be part of it.
What was measured:
Assay in all cases: co-IP; HEK293T (WT or tmem127-/-) co-transfected; post-nuclear supernatant on GFP beads 2 h at 4 °C (GFP-SteD as bait); lysis 0.5% Triton-X-100, 150 mM NaCl, 50 mM Tris-Cl pH 7.4, 5 mM EDTA, 5% glycerol; immunoblot
[1] = molecular target: GFP-SteD 37-102 (Salmonella enterica)
[2] = molecular target: GFP-SteD 37-111 (Salmonella enterica)
[3] = molecular target: GFP-SteD 1-102 (Salmonella enterica)
[4] = molecular target: GFP-SteD 1-41 (Salmonella enterica)

B1: FLAG-TMEM127 (wild type) (protein, UniProt O75204 1-238)
chain: MYAPGGAGLPGGRRRRSPGGSALPKQPERSLASALPGALSITALCTALAEPAWLHIHGGTCSRQELGVSDVLGYVHPDLLKDFCMNPQTVLLLRVIAAFCFLGILCSLSAFLLDVFGPKHPALKITRRYAFAHILTVLQCATVIGFSYWASELILAQQQQHKKYHGSQVYVTFAVSFYLVAGAGGASILATAANLLRHYPTEEEEQALELLSEMEENEPYPAEYEVINQFQPPPAYTP
- binding [1]: binds weakly
- binding [2]: binds
- binding [3]: binds
- binding [4]: no binding
